Consider three substances from paper doi:10.1101/2022.05.18.492435.

The chains behind the UniProt entries cited, without tags or fusion partners.
UniProt Q9BSM1: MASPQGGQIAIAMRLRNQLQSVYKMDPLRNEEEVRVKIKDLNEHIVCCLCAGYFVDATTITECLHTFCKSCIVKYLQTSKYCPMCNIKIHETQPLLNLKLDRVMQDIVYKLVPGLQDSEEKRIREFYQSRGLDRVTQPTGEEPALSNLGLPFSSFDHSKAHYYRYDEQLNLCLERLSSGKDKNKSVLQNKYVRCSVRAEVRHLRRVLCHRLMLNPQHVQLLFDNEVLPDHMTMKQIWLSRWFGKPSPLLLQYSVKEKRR
UniProt P35226: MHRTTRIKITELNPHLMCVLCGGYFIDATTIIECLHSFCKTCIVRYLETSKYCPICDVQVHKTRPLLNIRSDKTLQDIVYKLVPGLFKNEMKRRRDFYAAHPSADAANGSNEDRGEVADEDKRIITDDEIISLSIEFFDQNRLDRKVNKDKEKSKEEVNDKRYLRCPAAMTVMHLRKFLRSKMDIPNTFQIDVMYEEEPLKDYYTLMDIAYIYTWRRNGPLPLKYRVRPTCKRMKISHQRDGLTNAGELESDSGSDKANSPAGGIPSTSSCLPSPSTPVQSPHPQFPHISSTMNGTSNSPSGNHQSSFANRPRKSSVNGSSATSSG
UniProt Q6W2J9: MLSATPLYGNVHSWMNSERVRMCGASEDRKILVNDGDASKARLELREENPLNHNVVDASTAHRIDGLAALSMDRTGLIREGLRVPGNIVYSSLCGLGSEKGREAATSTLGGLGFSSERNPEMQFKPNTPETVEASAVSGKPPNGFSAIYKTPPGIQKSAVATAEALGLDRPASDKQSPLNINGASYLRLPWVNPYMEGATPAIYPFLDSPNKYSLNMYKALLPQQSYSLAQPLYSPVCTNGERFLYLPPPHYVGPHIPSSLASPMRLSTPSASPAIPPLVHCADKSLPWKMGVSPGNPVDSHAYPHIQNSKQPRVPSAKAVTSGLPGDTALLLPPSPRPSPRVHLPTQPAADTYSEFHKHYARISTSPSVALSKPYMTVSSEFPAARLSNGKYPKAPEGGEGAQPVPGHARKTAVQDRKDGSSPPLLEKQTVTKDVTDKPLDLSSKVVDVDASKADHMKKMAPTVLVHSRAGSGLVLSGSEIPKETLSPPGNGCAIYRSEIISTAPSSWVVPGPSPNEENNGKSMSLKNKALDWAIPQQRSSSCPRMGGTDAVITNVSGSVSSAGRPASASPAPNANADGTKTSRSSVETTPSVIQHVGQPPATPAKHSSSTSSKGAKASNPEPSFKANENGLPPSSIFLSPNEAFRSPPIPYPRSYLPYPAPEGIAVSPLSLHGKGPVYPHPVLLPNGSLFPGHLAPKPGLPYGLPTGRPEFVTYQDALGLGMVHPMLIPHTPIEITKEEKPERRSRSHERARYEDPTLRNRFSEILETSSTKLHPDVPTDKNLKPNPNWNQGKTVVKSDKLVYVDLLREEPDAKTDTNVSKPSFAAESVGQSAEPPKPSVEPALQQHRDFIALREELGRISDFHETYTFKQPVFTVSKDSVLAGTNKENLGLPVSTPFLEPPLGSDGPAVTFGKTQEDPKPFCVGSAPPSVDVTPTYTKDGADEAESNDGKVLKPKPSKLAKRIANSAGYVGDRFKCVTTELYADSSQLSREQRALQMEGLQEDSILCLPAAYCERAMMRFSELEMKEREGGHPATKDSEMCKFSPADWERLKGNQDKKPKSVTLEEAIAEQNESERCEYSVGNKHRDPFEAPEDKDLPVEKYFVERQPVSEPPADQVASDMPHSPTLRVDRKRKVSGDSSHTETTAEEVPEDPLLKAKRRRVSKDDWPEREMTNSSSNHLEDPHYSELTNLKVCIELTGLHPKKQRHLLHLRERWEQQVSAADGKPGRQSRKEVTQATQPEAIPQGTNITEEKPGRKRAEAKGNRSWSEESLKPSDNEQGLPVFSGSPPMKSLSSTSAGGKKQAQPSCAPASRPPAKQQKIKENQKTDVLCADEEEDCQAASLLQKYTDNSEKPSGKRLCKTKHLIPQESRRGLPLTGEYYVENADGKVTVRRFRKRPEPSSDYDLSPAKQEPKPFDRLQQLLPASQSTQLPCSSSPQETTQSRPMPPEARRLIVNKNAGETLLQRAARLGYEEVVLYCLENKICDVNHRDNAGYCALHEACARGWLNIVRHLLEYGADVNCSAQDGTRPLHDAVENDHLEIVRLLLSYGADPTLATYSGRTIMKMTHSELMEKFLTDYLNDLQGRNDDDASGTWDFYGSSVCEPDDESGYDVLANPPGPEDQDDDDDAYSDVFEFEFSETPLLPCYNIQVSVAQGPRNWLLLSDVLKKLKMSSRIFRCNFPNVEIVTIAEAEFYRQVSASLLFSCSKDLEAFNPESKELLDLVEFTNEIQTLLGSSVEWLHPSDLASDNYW
UniProt Q06587: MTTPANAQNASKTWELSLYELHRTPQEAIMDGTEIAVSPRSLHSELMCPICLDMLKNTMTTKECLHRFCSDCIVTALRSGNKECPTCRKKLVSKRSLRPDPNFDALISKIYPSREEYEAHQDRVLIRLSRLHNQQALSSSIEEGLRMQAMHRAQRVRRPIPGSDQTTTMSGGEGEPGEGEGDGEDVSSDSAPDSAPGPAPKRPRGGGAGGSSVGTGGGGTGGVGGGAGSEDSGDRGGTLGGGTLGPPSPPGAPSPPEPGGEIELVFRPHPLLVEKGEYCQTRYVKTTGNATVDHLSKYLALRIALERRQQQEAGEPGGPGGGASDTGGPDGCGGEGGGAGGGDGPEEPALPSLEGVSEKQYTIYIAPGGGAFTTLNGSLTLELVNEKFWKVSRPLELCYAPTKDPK
UniProt Q99496: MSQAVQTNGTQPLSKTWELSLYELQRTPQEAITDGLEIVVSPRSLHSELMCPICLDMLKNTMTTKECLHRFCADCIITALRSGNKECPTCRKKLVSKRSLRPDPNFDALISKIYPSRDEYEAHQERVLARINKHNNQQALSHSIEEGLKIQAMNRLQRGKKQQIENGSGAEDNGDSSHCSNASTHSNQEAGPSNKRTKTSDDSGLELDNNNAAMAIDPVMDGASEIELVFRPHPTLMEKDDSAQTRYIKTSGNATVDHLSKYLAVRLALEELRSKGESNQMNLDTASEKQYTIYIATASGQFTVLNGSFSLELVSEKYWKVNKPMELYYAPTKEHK

Common to all, as to test: co-IP
For test [1], the target named is PCGF1 (human (endogenous in NT2)) (UniProt Q9BSM1).
Test [2] has as its target T1, PCGF2 (human (endogenous in NT2)) (UniProt P35227).
T1 sequence: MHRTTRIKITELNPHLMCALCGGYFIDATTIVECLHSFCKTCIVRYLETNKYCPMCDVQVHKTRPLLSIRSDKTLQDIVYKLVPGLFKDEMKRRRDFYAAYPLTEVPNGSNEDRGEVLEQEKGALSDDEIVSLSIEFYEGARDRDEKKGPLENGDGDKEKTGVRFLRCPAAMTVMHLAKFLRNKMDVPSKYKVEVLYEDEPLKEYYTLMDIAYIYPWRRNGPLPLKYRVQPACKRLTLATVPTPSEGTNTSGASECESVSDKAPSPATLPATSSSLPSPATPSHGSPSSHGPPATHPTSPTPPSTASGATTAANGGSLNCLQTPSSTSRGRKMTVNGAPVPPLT

In test [3] the target is PCGF4 (human (endogenous in NT2)) (UniProt P35226).

No constants are given. Whether binding was seen depends on the method and setting. Binding seen in cells or lysates may run through a third protein. Some results given as binding are weak or reduced against the parent protein; the word gives no strength.

As for BCOR (from UniProt Q6W2J9 1-1755), the binding result in test [1] is “binds”.

For RING1A (from UniProt Q06587 1-406), the binding entry in test [1], in test [2] and in test [3] was “binds” throughout.

RNF2 (from UniProt Q99496 1-336): in test [2], the binding entry was “binds”.
